Data on 32 molecules can be found in the supplement of paper PMC11348887.

Structures can show the parent of a compound that is named as a salt. This is one part of the list. Most values lie at the level of the controls, where differences are scatter.

The first assay concerns hPSC-derived cortical neurons (WA09). Briefly: nucleus roundness z-score vs screen plate; higher = rounder nuclei (more mature). The conditions noted are these: 5 µM; treatment: days 7-14 after plating, readout day 21.
`Cc1cccc(-c2[nH]c(CNc3ccccc3F)nc2-c2ccc3ncnn3c2)n1` gave a nucleus roundness z-score of -4.39.

The molecule `CN(CCOc1ccc(CC2SC(=O)NC2=O)cc1)c1ccccn1` (configuration not stated) [Rosiglitazone] had a nucleus roundness z-score of -0.118.

Take `O=C(Nc1cccc(Cl)c1)c1ccccn1`: the nucleus roundness z-score was -0.845.

In the case of `CN1CCN(c2ccc(OC(F)(F)F)c(Nc3ncc4c(n3)-c3c(c(C(N)=O)nn3CCO)CC4)c2)CC1`, the nucleus roundness z-score stood at 0.299.

The molecule `C#Cc1cccc(Nc2ncnc3cc(OCCOC)c(OCCOC)cc23)c1` [Erlotinib] gave a nucleus roundness z-score of 0.153.

In the case of `COc1ccccc1N1CCN(CC(O)COc2cccc3ccccc23)CC1` (configuration not stated) [Naftopidil DiHCl], the nucleus roundness z-score is -0.654.

On to `NC[C@H]1O[C@H](O[C@H]2[C@H](O)[C@@H](O[C@H]3O[C@H](CO)[C@@H](O)[C@H](N)[C@H]3O)[C@H](N)C[C@@H]2N)[C@H](O)[C@@H](O)[C@@H]1O` [Kanamycin sulfate], for which the nucleus roundness z-score is 0.167.

The molecule `CC(=O)Oc1cc(C(F)(F)F)ccc1C(=O)O` [Triflusal] registered a nucleus roundness z-score of -0.586.

As for `COc1cc(-c2ncn(/C=C\C(=O)OC(C)C)n2)cc(C(F)(F)F)c1`, the nucleus roundness z-score was -3.06.

`CCCc1cc(C(N)=S)ccn1` [Protionamide]: the nucleus roundness z-score is -0.26.

Turning to `O=S(=O)(O)NC1CCCCC1` [Cyclamic  acid], the nucleus roundness z-score was -1.96.

For the molecule `CCN(CCCOc1ccc2c(Nc3cc(CC(=O)Nc4cccc(F)c4)[nH]n3)ncnc2c1)CCOP(=O)(O)O` [Barasertib (AZD1152-HQPA)], the nucleus roundness z-score stood at 0.564.

On to `CC(C)(C)OC(=O)Nc1ccc(-c2cc(C(=O)NCCCCCCC(=O)NO)no2)cc1`, for which the nucleus roundness z-score was -3.12.

`O=C(O)CCC(=O)Nc1ccc(S(=O)(=O)Nc2nccs2)cc1` [Succinylsulfathiazole] had a nucleus roundness z-score of 0.402.

Turning to `CCCS(=O)(=O)Nc1ccc(F)c(C(=O)c2c[nH]c3ncc(-c4ccc(Cl)cc4)cc23)c1F` [Vemurafenib (PLX4032_ RG7204)], the nucleus roundness z-score amounted to 0.423.

The test system is the same in the next assay. Briefly: KCl-induced FOS+/EGR-1+ double-positive nuclei fraction z-score (KCl minus unstimulated); higher = stronger activity-induced IEG response. The conditions noted are these: 5 µM; treatment: days 7-14 after plating, readout day 21.
As to `CN1CCC(COc2cnc(-c3cccc(Cn4nc(-c5cccc(C#N)c5)ccc4=O)c3)nc2)CC1`, the “KCl-induced FOS+/EGR-1+ double-positive nuclei fraction z-score” value came out at 1.04.

`CNC(=O)c1ccc(N2C(=S)N(c3cnc(C#N)c(C(F)(F)F)c3)C(=O)C23CCC3)cc1F`: the “KCl-induced FOS+/EGR-1+ double-positive nuclei fraction z-score” value is -0.0646.

`C[C@]12C=CC(=O)C=C1CC[C@@H]1[C@@H]2[C@@H](O)C[C@@]2(C)[C@H]1CC[C@]2(O)C(=O)CO` [Prednisolone]: the “KCl-induced FOS+/EGR-1+ double-positive nuclei fraction z-score” value turned out to be 1.22.

Take `Oc1c(I)cc(I)c2cccnc12` [Diiodohydroxyquinoline]: the “KCl-induced FOS+/EGR-1+ double-positive nuclei fraction z-score” value turned out to be 2.39.

`C=C1C[C@@]2(O)O[C@@]3(C[C@H]2C(C)C)[C@@H](C)CC[C@@H]13` [Curcumol]: the “KCl-induced FOS+/EGR-1+ double-positive nuclei fraction z-score” value is -0.425.

For the molecule `O=C(c1ccccc1)c1ccc2n1CCC2C(=O)O` (configuration not stated) [Ketorolac], the “KCl-induced FOS+/EGR-1+ double-positive nuclei fraction z-score” value was found to be 0.5.

As to `COC(=O)CC[C@H](NC(=O)[C@H](CC(=O)OC)NC(=O)OCc1ccccc1)C(=O)N[C@H](C(=O)N[C@@H](CC(=O)OC)C(=O)CF)C(C)C`, the “KCl-induced FOS+/EGR-1+ double-positive nuclei fraction z-score” value is 1.1.

In the case of `O=C(c1cccc(Cl)c1F)N1CCN(Cc2cccc(Nc3nccs3)n2)CC1`, the “KCl-induced FOS+/EGR-1+ double-positive nuclei fraction z-score” value was -0.218.

As to `CNC(=O)[C@H](Cc1ccccc1)NC(=O)[C@H](CC(C)C)[C@H](CSc1cccs1)C(=O)NO` [Batimastat (BB-94)], the “KCl-induced FOS+/EGR-1+ double-positive nuclei fraction z-score” value is -3.07.

Take `C[C@H](CCC(=O)O)[C@H]1CC[C@H]2[C@@H]3CC[C@@H]4C[C@H](O)CC[C@]4(C)[C@H]3C[C@H](O)[C@]12C` [Deoxycholic acid]: the “KCl-induced FOS+/EGR-1+ double-positive nuclei fraction z-score” value was 0.127.

In the case of `CCCC(=O)O[C@]1(C(=O)COC(C)=O)CC[C@H]2[C@@H]3C[C@H](F)C4=CC(=O)C=C[C@]4(C)[C@@]3(F)[C@@H](O)C[C@@]21C` [Difluprednate], the “KCl-induced FOS+/EGR-1+ double-positive nuclei fraction z-score” value turned out to be 0.0735.

Turning to `CNc1nc(Nc2cn(C(C)(C)C#N)nc2C)ncc1C(F)(F)F`, the “KCl-induced FOS+/EGR-1+ double-positive nuclei fraction z-score” value was 1.22.

As to `CC[C@H](C)[C@@H]1NC(=O)[C@H](Cc2ccc(O)cc2)NC(=O)[C@@H](N)CSSC[C@@H](C(=O)N2CCC[C@H]2C(=O)N[C@@H](CC(C)C)C(=O)NCC(N)=O)NC(=O)[C@H](CC(N)=O)NC(=O)[C@H](CCC(N)=O)NC1=O` [Oxytocin (Syntocinon)], the “KCl-induced FOS+/EGR-1+ double-positive nuclei fraction z-score” value is -0.445.

In the case of `CN(Cc1cnc2nc(N)nc(N)c2n1)c1ccc(C(=O)N[C@@H](CCC(=O)O)C(=O)O)cc1` [Methotrexate], the “KCl-induced FOS+/EGR-1+ double-positive nuclei fraction z-score” value was -0.21.

As for `O=C(/C=C\n1cnc(-c2cc(C(F)(F)F)cc(C(F)(F)F)c2)n1)NNc1ccccn1` [Verdinexor (KPT-335)], the “KCl-induced FOS+/EGR-1+ double-positive nuclei fraction z-score” value is -0.687.

`CCN1CCCC1CNC(=O)c1cc(S(=O)(=O)CC)c(N)cc1OC` (configuration not stated) [Amisulpride]: the “KCl-induced FOS+/EGR-1+ double-positive nuclei fraction z-score” value was -0.154.

Regarding `CC(C)(C(=O)NCC(F)(F)C(F)(F)F)C(=O)N[C@@H]1C(=O)Nc2ccccc2-c2ccccc21`, the “KCl-induced FOS+/EGR-1+ double-positive nuclei fraction z-score” value was -0.564.
